Measurements reported in PubChem BioAssay AID1224828 (NIAID, 2016).
The deposit covers about 17,000 reagents; below is a part drawn at random. Of all reagents, 762 (4.5%) are marked active. 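Active calls include both raised and lowered p65 entry, mostly lowered; wells with fewer than 50 cells lack a z-score.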 Raw values are not corrected between plates. Unmarked entries are inactive.

- Screen: 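Knock-downs that increase or decrease LPS-induced p65 nuclear translocation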 (primary screen)
- Cells: mouse RAW264.7 G9 macrophage reporter cells (GFP-p65, Tnf promoter-mCherry)
- Reagent: siRNA pool against mouse genes, 100 nM
- Duration: 2 days siRNA transfection, then 40 min LPS before fixation
- Challenge: LPS (Salmonella minnesota R595) at 10 ng/ml
- Detection: 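Microscopy ratio of nuclear to perinuclear-ring GFP-p65 signal, scaled to the plate median; gene score is the average of two replicate robust z-scores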
- Scale: p65 translocation robust z-score: higher = more nuclear NF-kappaB p65 after LPS than the plate median; nuclear/cytoplasmic p65 ratio: higher = more nuclear NF-kappaB p65
- Call rule: 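Called active when z exceeds 3.3 or falls under -1.56 (median of Tlr4 controls), giving activity score of at least 50; no calls for control wells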
- Calls: active = hit (p65 shift raised or lowered); inactive = no clear change

Ghrhr (growth hormone releasing hormone receptor) — p65 translocation robust z-score: -1.18; nuclear/cytoplasmic p65 ratio, rep 1: 1.34; nuclear/cytoplasmic p65 ratio, rep 2: 1.41; low cell count flag: enough cells to score
Commd5 (COMM domain containing 5) — p65 translocation robust z-score: -0.96; nuclear/cytoplasmic p65 ratio, rep 1: 1.46; nuclear/cytoplasmic p65 ratio, rep 2: 1.59; low cell count flag: enough cells to score
Cabp5 (calcium binding protein 5) — p65 translocation robust z-score: -2.42 (active); nuclear/cytoplasmic p65 ratio, rep 1: 1.23; nuclear/cytoplasmic p65 ratio, rep 2: 1.33; low cell count flag: enough cells to score
Trpv4 — p65 translocation robust z-score: -0.59; nuclear/cytoplasmic p65 ratio, rep 1: 1.44; nuclear/cytoplasmic p65 ratio, rep 2: 1.41; low cell count flag: enough cells to score
Unc45a (unc-45 myosin chaperone A) — p65 translocation robust z-score: -0.14; nuclear/cytoplasmic p65 ratio, rep 1: 1.25; nuclear/cytoplasmic p65 ratio, rep 2: 1.56; low cell count flag: enough cells to score
Ccdc186 (coiled-coil domain containing 186) — p65 translocation robust z-score: 0.96; nuclear/cytoplasmic p65 ratio, rep 1: 1.24; nuclear/cytoplasmic p65 ratio, rep 2: 1.66; low cell count flag: enough cells to score
Kcnj9 (potassium inwardly-rectifying channel, subfamily J, member 9) — nuclear/cytoplasmic p65 ratio, rep 1: 1.56; nuclear/cytoplasmic p65 ratio, rep 2: 1.59; low cell count flag: fewer than 50 cells per well; well left out of scoring
Lrch4 — p65 translocation robust z-score: 1.1; nuclear/cytoplasmic p65 ratio, rep 1: 1.55; nuclear/cytoplasmic p65 ratio, rep 2: 1.6; low cell count flag: enough cells to score
Slc1a5 — nuclear/cytoplasmic p65 ratio, rep 1: 1.41; nuclear/cytoplasmic p65 ratio, rep 2: 1.31; low cell count flag: fewer than 50 cells per well; well left out of scoring
Pcdha11 (protocadherin alpha 11) — p65 translocation robust z-score: -0.05; nuclear/cytoplasmic p65 ratio, rep 1: 1.48; nuclear/cytoplasmic p65 ratio, rep 2: 1.2; low cell count flag: enough cells to score
Psmd8 (proteasome (prosome, macropain) 26S subunit, non-ATPase, 8) — nuclear/cytoplasmic p65 ratio, rep 1: 1.53; nuclear/cytoplasmic p65 ratio, rep 2: 1.59; low cell count flag: fewer than 50 cells per well; well left out of scoring
Lhfpl1 (lipoma HMGIC fusion partner-like 1) — nuclear/cytoplasmic p65 ratio, rep 1: 1.87; nuclear/cytoplasmic p65 ratio, rep 2: 1.49; low cell count flag: fewer than 50 cells per well; well left out of scoring
